The other results are listed elsewhere or left out. Shown are side measurements of this screen, not its main read-out; they come without a call. The list favours compounds with an active or inconclusive main result. The note in brackets gives the kind of curve behind each potency; many fits are weak.
Experiment: qHTS Assay for Lipid Storage Modulators in Drosophila S3 Cells;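 for cell number change: cells counted by Cell Tracker Red CMTPX staining in the red channel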
Details: BODIPY lipid droplet fluorescence, 18-24 h; for cell number change: measured here: cell count max response, cells fed with added oleic acid
How it was run: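 Drosophila S3 cells got compounds at several concentrations plus oleic acid (400 uM solution). Laser-scanning cytometry with 488 nm excitation read lipid droplets at 500-530 nm and cells at 575-640 nm. Percent activity was relative to 20 uM Triacsin C.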

[1] = measured here: cell number channel AC50, cells fed with added oleic acid
[2] = measured here: lipid fluorescence (Fed channel) AC50, cells fed with added oleic acid

| Compound | AC50 [1] | AC50 [2] | cell number change [%] |
| --- | --- | --- | --- |
| CCS(=O)(=O)N1N=C(c2cccc(NS(C)(=O)=O)c2)CC1c1cccs1 (stereo not given) | 116 nM [falling, full curve, poor fit] | 6510 nM [rising, single point] |  |
| O=c1ccc(/C=C/c2ccccc2)nn1Cc1ccc(F)cc1 |  | 6510 nM [falling, single point] | 32.6 |
| Cn1c(SCC(=O)Nc2ccc3c(c2)OCCO3)nnc1-c1cccnc1 | 29100 nM [rising, single point] |  | 31.6 |
| Cc1ccc(NC(=O)CN2C(=O)C(=O)N(C3CCCC3)C2=O)cc1Cl |  | 1300 nM [falling, partial curve] | -24.6 |
| O=C(CSc1nccc(=O)[nH]1)Nc1cc(C(F)(F)F)ccc1N1CCOCC1 | 5170 nM [rising, single point] |  | 7.69 |
| NN(Cc1ccccc1)C(=S)Nc1ccc(Cl)c(Cl)c1 |  |  | 9.4 |
| COc1ccc(CN2C(=O)c3cccnc3C2=O)cc1S(=O)(=O)N1CCOc2ccccc21 |  | 5.17 nM [falling, full curve, poor fit] | 2.31 |
| O=C1CCCN1CN(C(=O)c1ccc2c(c1)OCO2)c1cccc(Cl)c1 |  | 731 nM [falling, full curve] | 0.267 |
| COc1ccc(/C=C/C(=O)c2cc(Cl)ccc2O)c(OC)c1 |  |  | 1.17 |
| COc1ccc2cc(C(=O)N3CCCC(Nc4ccc(F)cc4)C3)n(C)c2c1 (stereo not given) |  |  | 1.76 |
| Cn1c(=O)c2sccc2n2c(CCCC(=O)Nc3ccccc3)nnc12 |  | 651 nM [falling, partial curve, poor fit] | 3.3 |
| CCOC(=O)c1[nH]c(CSc2nnc(-c3ccncc3)n2CCOC)c(C(=O)OCC)c1C | 2910 nM [rising, full curve] | 2590 nM [rising, full curve] | 164 |
| COc1ccc(N2CCN(S(=O)(=O)CCNC(=O)/C=C/c3ccccc3)CC2)cc1 |  | 461 nM [falling, partial curve, poor fit] | -19.1 |
| COc1ccc(CN(Cc2ccc(C(=O)O)cc2)C(=S)Nc2ccc(C)cc2)cc1OC |  | 29100 nM [rising, single point] |  |
| COC(=O)c1[nH]c2cc(OC)ccc2c1NC(=O)CCN1CCN(c2ccccc2)CC1 |  |  | 20.3 |
| CCOC(=O)C1CCN(C(=O)C2CCCN(c3ncnc4c3nc3n4CCCCC3)C2)CC1 (stereo not given) |  | 29100 nM [rising, single point] | -14.9 |
| O=C(CCCCCn1c(=S)[nH]c2ccc(N3CCOCC3)cc2c1=O)NCc1ccc(Cl)cc1 |  | 820 nM [falling, full curve, poor fit] | -17.5 |

Reformatted: results already given
Compound	AC50 [1]	AC50 [2]	cell number change [%]
Cn1c(=O)c2sccc2n2c(CCCC(=O)Nc3ccccc3)nnc12		651 nM [falling, partial curve, poor fit]	3.3
CCOC(=O)c1[nH]c(CSc2nnc(-c3ccncc3)n2CCOC)c(C(=O)OCC)c1C	2910 nM [rising, full curve]	2590 nM [rising, full curve]	164

Source: PubChem BioAssay AID2685 (National Center for Advancing Translational Sciences (NCATS), 2010)
